# Test results from the supplement of paper PMC8728848.
# This is one part of the list.
# Assays:
# Assay in all cases: glycan array binding signal (z-score within array); higher = stronger binding
# Settings in all cases: glycan notation: IUPAC condensed, linker removed
# GalNAc(b1-6)GalNAc = biological target: GalNAc(b1-6)GalNAc
# In short: (§1)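 From the Consortium for Functional Glycomics database, 3228 arrays were curated, keeping only those whose protein sequence was available. Binding is given as a within-array Z-score averaged across arrays sharing a protein sequence and across linkers. Negative Z-scores can be read as non-binding.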
# Glc(a1-4)Glc = biological target: Glc(a1-4)Glc
# In short: as §1
# [1] = biological target: Glc(a1-4)Glc(a1-4)Glc(a1-4)Glc
# In short: as §1
# Glc(a1-6)Glc(a1-6)Glc = biological target: Glc(a1-6)Glc(a1-6)Glc
# In short: as §1
# [2] = biological target: Glc(a1-6)Glc(a1-6)Glc(a1-6)Glc
# In short: as §1
# Glc(b1-4)Glc = biological target: Glc(b1-4)Glc
# In short: as §1
# Glc(b1-6)Glc = biological target: Glc(b1-6)Glc
# In short: as §1
# GlcA(b1-3)Gal = biological target: GlcA(b1-3)Gal
# In short: as §1
# GlcA(b1-3)GlcNAc = biological target: GlcA(b1-3)GlcNAc
# In short: as §1
# GlcA(b1-6)Gal = biological target: GlcA(b1-6)Gal
# In short: as §1
# [3] = biological target: GlcNAc(a1-3)Gal(b1-4)GlcNAc
# In short: as §1
# [4] = biological target: GlcNAc(a1-4)Gal(b1-3)GlcNAc
# In short: as §1
# [5] = biological target: GlcNAc(a1-4)Gal(b1-4)GalNAc
# In short: as §1
# [6] = biological target: GlcNAc(a1-4)Gal(b1-4)GlcNAc
# In short: as §1
# [7] = biological target: GlcNAc(a1-4)Gal(b1-4)GlcNAc(b1-3)Gal(b1-4)Glc
# In short: as §1
# [8] = biological target: GlcNAc(a1-4)Gal(b1-4)GlcNAc(b1-3)Gal(b1-4)GlcNAc
# In short: as §1
# [9] = biological target: GlcNAc(a1-4)Gal(b1-4)GlcNAc(b1-3)Gal(b1-4)GlcNAc(b1-3)Gal(b1-4)GlcNAc
# In short: as §1
# [10] = biological target: GlcNAc(a1-4)Gal(b1-4)GlcNAc(b1-3)Gal(b1-4)[Fuc(a1-3)]GlcNAc(b1-3)Gal(b1-4)[Fuc(a1-3)]GlcNAc
# In short: as §1
# [11] = biological target: GlcNAc(a1-6)Gal(b1-4)GlcNAc
# In short: as §1
# [12] = biological target: GlcNAc(b1-2)Gal(b1-3)GalNAc
# In short: as §1
# [13] = biological target: GlcNAc(b1-2)Man(a1-3)[GlcNAc(b1-2)Man(a1-6)]Man(b1-4)GlcNAc(b1-4)GlcNAc
# In short: as §1
# [14] = biological target: GlcNAc(b1-2)Man(a1-3)[GlcNAc(b1-2)Man(a1-6)]Man(b1-4)GlcNAc(b1-4)[Fuc(a1-6)]GlcNAc
# In short: as §1
# [15] = biological target: GlcNAc(b1-2)Man(a1-3)[GlcNAc(b1-4)][GlcNAc(b1-2)Man(a1-6)]Man(b1-4)GlcNAc(b1-4)GlcNAc
# In short: as §1
# [16] = biological target: GlcNAc(b1-2)[GlcNAc(b1-4)]Man(a1-3)[GlcNAc(b1-2)Man(a1-6)]Man(b1-4)GlcNAc(b1-4)GlcNAc
# In short: as §1
# [17] = biological target: GlcNAc(b1-2)[GlcNAc(b1-4)]Man(a1-3)[GlcNAc(b1-4)][GlcNAc(b1-2)Man(a1-6)]Man(b1-4)GlcNAc(b1-4)GlcNAc
# In short: as §1
# [18] = biological target: GlcNAc(b1-2)[GlcNAc(b1-4)]Man(a1-3)[GlcNAc(b1-4)][GlcNAc(b1-2)[GlcNAc(b1-6)]Man(a1-6)]Man(b1-4)GlcNAc(b1-4)GlcNAc
# In short: as §1
# [19] = biological target: GlcNAc(b1-2)[GlcNAc(b1-6)]Man(a1-6)[GlcNAc(b1-2)Man(a1-3)]Man(b1-4)GlcNAc(b1-4)GlcNAc
# In short: as §1
# [20] = biological target: GlcNAc(b1-2)[GlcNAc(b1-6)]Man(a1-6)[GlcNAc(b1-2)Man(a1-3)][GlcNAc(b1-4)]Man(b1-4)GlcNAc(b1-4)GlcNAc
# In short: as §1
# GlcNAc(b1-3)Gal = biological target: GlcNAc(b1-3)Gal
# In short: as §1
# [21] = biological target: GlcNAc(b1-3)Gal(b1-3)GalNAc
# In short: as §1
# GlcNAc(b1-3)Gal(b1-4)Glc = biological target: GlcNAc(b1-3)Gal(b1-4)Glc
# In short: as §1
# [22] = biological target: GlcNAc(b1-3)Gal(b1-4)GlcNAc
# In short: as §1
# [23] = biological target: GlcNAc(b1-3)Gal(b1-4)GlcNAc(b1-3)Gal(b1-4)GlcNAc
# In short: as §1
# GlcNAc(b1-3)GalNAc = biological target: GlcNAc(b1-3)GalNAc
# In short: as §1
# GlcNAc(b1-3)Man = biological target: GlcNAc(b1-3)Man
# In short: as §1
# [24] = biological target: GlcNAc(b1-3)[GlcNAc(b1-4)][GlcNAc(b1-6)]GlcNAc
# In short: as §1
# [25] = biological target: GlcNAc(b1-3)[GlcNAc(b1-6)]Gal(b1-4)GlcNAc
# In short: as §1
binder,measurement,setting,value
"PGP3 (Chlamydia trachomatis), P0CE18 (protein) MGNSGFYLYNTQNCVFADNIKVGQMTEPLKDQQIILGTTSTPVAAKMTASDGISLTVSNNPSTNASITIGLDAEKAYQLILEKLGDQILGGIADTIVDSTVQDILDKITTDPSLGLLKAFNNFPITNKIQCNGLFTPRNIETLLGGTEIGKFTVTPKSSGSMFLVSADIIASRMEGGVVLALVREGDSKPYAISYGYSSGVPNLCSLRTRIINTGLTPTTYSLRVGGLESGVVWVNALSNGNDILGITNTSNVSFLEVIPQTNA",glycan array binding signal (z-score),GalNAc(b1-6)GalNAc,0.114
same,glycan array binding signal (z-score),Glc(a1-4)Glc,-0.334
same,glycan array binding signal (z-score),[1],0.478
same,glycan array binding signal (z-score),Glc(a1-6)Glc(a1-6)Glc,-0.679
same,glycan array binding signal (z-score),[2],0.029
same,glycan array binding signal (z-score),Glc(b1-4)Glc,-0.619
same,glycan array binding signal (z-score),Glc(b1-6)Glc,-1.12
same,glycan array binding signal (z-score),GlcA(b1-3)Gal,-0.25
same,glycan array binding signal (z-score),GlcA(b1-3)GlcNAc,-0.301
same,glycan array binding signal (z-score),GlcA(b1-6)Gal,0.571
same,glycan array binding signal (z-score),[3],-0.427
same,glycan array binding signal (z-score),[4],-1.85
same,glycan array binding signal (z-score),[5],0.374
same,glycan array binding signal (z-score),[6],0.292
same,glycan array binding signal (z-score),[7],-0.567
same,glycan array binding signal (z-score),[8],1.53
same,glycan array binding signal (z-score),[9],-0.435
same,glycan array binding signal (z-score),[10],0.557
same,glycan array binding signal (z-score),[11],-0.513
same,glycan array binding signal (z-score),[12],0.544
same,glycan array binding signal (z-score),[13],-0.357
same,glycan array binding signal (z-score),[14],-0.708
same,glycan array binding signal (z-score),[15],0.515
same,glycan array binding signal (z-score),[16],0.569
same,glycan array binding signal (z-score),[17],0.875
same,glycan array binding signal (z-score),[18],0.351
same,glycan array binding signal (z-score),[19],0.545
same,glycan array binding signal (z-score),[20],0.951
same,glycan array binding signal (z-score),GlcNAc(b1-3)Gal,0.03
same,glycan array binding signal (z-score),[21],-0.07
same,glycan array binding signal (z-score),GlcNAc(b1-3)Gal(b1-4)Glc,-0.92
same,glycan array binding signal (z-score),[22],-0.086
same,glycan array binding signal (z-score),[23],-1.52
same,glycan array binding signal (z-score),GlcNAc(b1-3)GalNAc,-0.558
same,glycan array binding signal (z-score),GlcNAc(b1-3)Man,-1.25
same,glycan array binding signal (z-score),[24],-1.18
same,glycan array binding signal (z-score),[25],-2.01

# Looked up one by one from above:
binder,measurement,setting,value
"PGP3 (Chlamydia trachomatis), P0CE18 (protein) MGNSGFYLYNTQNCVFADNIKVGQMTEPLKDQQIILGTTSTPVAAKMTASDGISLTVSNNPSTNASITIGLDAEKAYQLILEKLGDQILGGIADTIVDSTVQDILDKITTDPSLGLLKAFNNFPITNKIQCNGLFTPRNIETLLGGTEIGKFTVTPKSSGSMFLVSADIIASRMEGGVVLALVREGDSKPYAISYGYSSGVPNLCSLRTRIINTGLTPTTYSLRVGGLESGVVWVNALSNGNDILGITNTSNVSFLEVIPQTNA",glycan array binding signal (z-score),[22],-0.086
same,glycan array binding signal (z-score),GlcA(b1-3)GlcNAc,-0.301
same,glycan array binding signal (z-score),[11],-0.513
